How the values were obtained:
Assay type in all cases: in vivo, human
[1] = tested on: sensory panel of 5 to 8 trained persons; assay: Sensory panel tasting of umami intensity in water; settings: tasters' description
Experimental: (§1) The sensory tests were performed in a sensory panel room at 20-25° C. The sensory panel consisted of 5 to 8 trained persons. The technical tasting was measured versus a control sample. Tasters were asked to judge the different products according to umami intensity on a 3-point scale (no umami, umami and intense umami). Additionally the tasters were asked to objectively describe the prototype with comments.
The stereoisomers have been tested to umami intensity as described in example 7.

[2] = tested on: sensory panel of 5 to 8 trained persons; assay: Sensory panel tasting in 0.2% sodium chloride and 0.04% sugar; settings: C 200 mg/l, tasters' description
Experimental: as §1

[3] = tested on: sensory panel of 5 to 8 trained persons; assay: Sensory panel tasting in 0.2% sodium chloride and 0.04% sugar and 0.08% MSG; settings: 0.2% sodium chloride, tasters' description
Experimental: as §1

[4] = tested on: sensory panel of 5 to 8 trained persons; assay: Sensory panel tasting in 0.2% sodium chloride and 0.04% sugar and 0.015% IMP + GMP; settings: 0.2% sodium chloride, tasters' description
Experimental: as §1

**Q.** Which comments ([1]; C 100 mg/l) does the source give for “(5R)-(β-D-glucopyranosyloxy)-1,5-dihydro-2H-pyrrol-2-one” here?
**A.** Its comments is “Mouthfulness, round”.

**Q.** And the comments ([1]; C 250 mg/l)?
**A.** Its comments is “roundness”.

**Q.** And the comments ([1]; C 500 mg/l)?
**A.** Its comments is “Umami, roundness”.

**Q.** What about the comments [2] of the same compound?
**A.** Its comments is “Sweet, watery”.

**Q.** And the comments ([3]; C 200 mg/l)?
**A.** Its comments is “Chicken-like, round”.

**Q.** And the comments ([3]; C 500 mg/l)?
**A.** Its comments is “Round, mouthful,”.

**Q.** And the comments ([4]; C 200 mg/l)?
**A.** Its comments is “Broth-like, salivating”.

**Q.** And the comments ([4]; C 500 mg/l)?
**A.** Its comments is “Round, different to”.

**Q.** For `O=C1C=C[C@@H](O[C@H]2O[C@H](CO)[C@@H](O)[C@H](O)[C@H]2O)N1` [alpha-R, (5R)-(α-D-glucopyranosyloxy)-1,5-dihydro-2H-pyrrol-2-one], which comments ([1]; C 200 mg/l) is on record?
**A.** The comments was “Bitter, astringent”.

**Q.** What about the comments ([1]; C 400 mg/l) of the same compound?
**A.** Its comments is “Very bitter, chemical”.

**Q.** What about the comments ([1]; C 800 mg/l) of the same compound?
**A.** The comments was “chemical”.

**Q.** With `O=C1C=C[C@H](O[C@H]2O[C@H](CO)[C@@H](O)[C@H](O)[C@H]2O)N1` [alpha-S, (5S)-(α-D-glucopyranosyloxy)-1,5-dihydro-2H-pyrrol-2-one] as the compound, how does the comments ([1]; C 100 mg/l) read?
**A.** The comments was “chemical, astringent”.

**Q.** What about the comments ([1]; C 500 mg/l) of the same compound?
**A.** The comments was “Metallic, bitter”.

**Q.** For `O=C1C=C[C@H](O[C@@H]2O[C@H](CO)[C@@H](O)[C@H](O)[C@H]2O)N1` [beta-S, (5S)-(β-D-glucopyranosyloxy)-1,5-dihydro-2H-pyrrol-2-one], which comments ([1]; C 200 mg/l) is on record?
**A.** The comments was “bitter”.

**Q.** And the comments ([1]; C 500 mg/l)?
**A.** Its comments is “Pungent, desinfectant”.

From US20180153203A1, “(5R)-(ß-D-GLUCOPYRANOSYLOXY)-1,5-DIHYDRO-2H-PYRROL-2-ONE AS UMAMI MOLECULE” (priority 2015, published 2018)
